## Primary screen of a compound library

The values are deposited in ChEMBL (CHEMBL3988442, “University of Dundee, Small-Polar-MMV Screening Library” (2021)).

Values are the deposited “Percent Effect”, in %. How 0% and 100% were set is not recorded. Most values in the screen are low, and negative values occur. Compounds were drawn at random from those tested, without regard to their results. Two or more numbers in one place are separate tests of the same structure; such repeats can differ widely.

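Viability assay of Plasmodium falciparum sporozoites; the read-out is not stated. The concentration is filed as 10 mM, unlikely as a test dose, so the dose is not known. The record gives no direction; compounds that gave an IC50 in retests scored well above the rest, so higher reads as lower viability. Strong results were mostly tested again. About 34,000 compounds were tested under these conditions; 0.84% (about 280) showed 50% or more at least once.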

compound | Percent Effect
O=C(O)C(F)(F)F.[H][C@@]12CCN(Cc3ccoc3)[C@]1([H])CC[C@H](C(=O)Nc1cnccn1)O2 | 7.632%
COc1ccc(CN2C[C@@H](O)[C@](O)(CNC(=O)c3ccccn3)C2)cc1 | 13.46%
O=C(O)C(F)(F)F.O=C(O)C(F)(F)F.[H][C@@]12CCN(Cc3cccc(C#N)c3)[C@@]1([H])CC(=O)N2Cc1ccncc1 | -9.88%
c1ccc(-c2nc(CN3CCCCC3Cn3cncn3)co2)cc1 (stereo not drawn) | -5.11%
Cc1nccn1C1CCCN(C(=O)c2ccc(N(C)C)nc2)C1 (stereo not drawn) | 9.698%
O=C(O)C(F)(F)F.[H][C@@]12CCN(C(C)C)C[C@]1([H])CN(C(=O)c1ccc(C)nc1)C2 | -14.37%
Cc1cccc(NC(=O)NCCCn2nc3ccccn3c2=O)c1C | 0.8%
CC(=O)N1CCOC(c2c(C(=O)NC(C)(C)C)sc3ccccc23)C1 (stereo not drawn) | -4.496%
CCc1cc(CN(C)C(=O)c2cnon2)on1 | -1.404%
O=c1cc(Cn2ccnc2)nc2n1CCCN(Cc1ccsc1)C2 | -16.01%
N#Cc1cccc(S(=O)(=O)NC(=O)COC2CCCC2)c1 | 6.541%
O=C(O)CCc1cccc(C2CCCN2Cc2cccc(Cl)c2)n1 (stereo not drawn) | 8.113%
CCNc1cc2c(nn1)CCN(C(=O)Cc1ccc(C)s1)C2 | 1.554%
O=C(O)C(F)(F)F.[H][C@@]12CCN(C(=O)NC)CC[C@]1(C(=O)N1CCOCC1)CCN2CC | 8.725%
Cc1ccc(CC(=O)N2CCCC(c3cc(C(N)=O)[nH]n3)C2)cn1 (stereo not drawn) | -4.021%
Cc1ccnn1CCNC(=O)c1cnc(N(C)C)nc1 | 8.01%
CN1Cc2ccccc2N(CC(O)C(F)(F)F)CCC1=O (stereo not drawn) | -40.87%
CCc1ccc(-n2c(=O)[nH]c3nc(N4CCSCC4)ncc3c2=O)cc1 | -0.3382%
Cc1cccc2c1cnn2CCC(=O)NCC(=O)N(C)C | -10.53%
Cc1nc(SCC(=O)Nc2ccc(C(N)=O)cc2)c(C#N)c(C)c1C | -1.522%
Cc1nc(C2CCCN2CC(=O)NCCOc2ccccc2)no1 (stereo not drawn) | 1.979%
CCc1nccn1C1CCCN(C(=O)C2=NN(C)C(=O)CC2)C1 (stereo not drawn) | -3.542%
COC(=O)c1ccc2c(-c3ccnc(NCCO)n3)c[nH]c2c1 | -4.488%
CCc1cccc(N2CCC(NC(=O)c3ccoc3C)CC2)c1 | -5.922%
O=C(Cc1ccc2c(c1)CCO2)N1CCCCC1Cn1cccn1 (stereo not drawn) | -16.57%
COc1c(CNCCNC(=O)c2ccccc2F)c(C)nn1C | 15.91%
Fc1cccc(-c2nc(CN3CCCCC3Cn3cncn3)co2)c1 (stereo not drawn) | 0.2467%
COCCCN1CC2(CCC1=O)CCN(Cc1cc(C(C)C)no1)CC2 | 6.754%
Cc1ccc(CN2CCc3onc(C(=O)NC(C)C)c3C2)o1.O=C(O)C(F)(F)F | -32.11%
Cl.Cn1nc(C2CCN(C(=O)CCN3CCOCC3)CC2)c2cccnc21 | 4.318%
OC1CCN(CCCNc2ncccn2)CC1 | -14.48%
O=C(c1cccc2c1OCO2)N1CCCCC1Cn1cccn1 (stereo not drawn) | -7.804%
Cc1nc2c(c(=O)n1C)CCN(C(=O)Cn1cccc1)CC2 | -5.089%
CCn1cc(CNc2ccc3nccnc3c2)cn1 | -15.03%
CN(C)S(=O)(=O)N1CC[C@]2(C[C@@H](Oc3ncccc3F)CO2)C1.O=C(O)C(F)(F)F | -17.76%
CS(=O)(=O)CCNCc1ccc(OCc2ccncc2)cc1 | 4.973%
O=C1CN(C(=O)C2CN(c3cccc(F)c3)CCO2)CCN1 (stereo not drawn) | 13.83%
O=C(c1ccc(-n2cnnc2)cc1)N1CCC(Nc2cccnn2)CC1 | -4.294%
COc1ncccc1C(=O)N1CCn2c(COCC3CC3)cnc2C1C (stereo not drawn) | -10.18%
[H][C@@]12CCCO[C@]1([H])[C@H](NC(=O)c1cscn1)CN2Cc1ccco1 | -11.1%
CC1CN(Cc2cccnc2)CCN1c1ccc2nncn2n1 (stereo not drawn) | 7.807% & -37.52% & -21.57%
Cc1nc(CN2CCN(C(=O)CCc3ccco3)CC2)cs1 | 2.172%
Cc1cc(C)n(C2CCCN(C(=O)CCOc3ccccc3F)C2)n1 (stereo not drawn) | 1.347%
FC(F)(F)CCN(Cc1ccon1)C1CCCC1 | 13.94%
O=C(c1cccnc1)N1CCC2(CC1)CCN(Cc1ccccn1)C2=O | -21.66%
CC(C)N(C)CC(=O)NCc1ccccc1N1CCN(C)CC1 | 13.33%
Cc1csc(N2CCCN(C(=O)c3cnns3)CC2)n1 | -12.75%
FC(F)(F)Oc1cccc(CNCc2ccc(-n3cncn3)nc2)c1 | 6.488%
COc1c(C)cnc(CN2CCC(N(C)C(C)C(N)=O)CC2)c1C (stereo not drawn) | 5.56%

4 of the entries, repeated:

O=C(O)C(F)(F)F.[H][C@@]12CCN(C(C)C)C[C@]1([H])CN(C(=O)c1ccc(C)nc1)C2 gave -14.37%.
Cc1cccc2c1cnn2CCC(=O)NCC(=O)N(C)C gave -10.53%.
COc1c(CNCCNC(=O)c2ccccc2F)c(C)nn1C gave 15.91%.
Cc1cc(C)n(C2CCCN(C(=O)CCOc3ccccc3F)C2)n1 (stereo not drawn) gave 1.347%.